Results are given in words; binding and its absence hold for the method and conditions named. In cells and extracts the contact can be indirect. Some binding calls cover weakened binding; strength is not graded here. For some assays here: Where a sequence is shown, tags or fusion partners need not be part of it. Each block holds one molecule with its values, some of them ahead of it.
Legend:
[1] = biological target: T1, GST-tagged N-terminal ArfGAP domain of human GIT2, residues 1-124 (GST-GIT2(1-124)) (human) (UniProt Q14161); assay: pull-down; GST-fusion proteins or GST alone immobilised on Glutathione-Sepharose and incubated with whole-cell extracts of U-251 MG cells; immunoblot; only the target purified
T1 sequence: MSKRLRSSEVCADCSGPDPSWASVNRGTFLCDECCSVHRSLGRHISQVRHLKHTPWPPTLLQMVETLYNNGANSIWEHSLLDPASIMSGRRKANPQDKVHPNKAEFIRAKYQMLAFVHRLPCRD

Protein sequences, listed by entry. Tags and fused reporters are not part of them.
UniProt Q9UGJ1: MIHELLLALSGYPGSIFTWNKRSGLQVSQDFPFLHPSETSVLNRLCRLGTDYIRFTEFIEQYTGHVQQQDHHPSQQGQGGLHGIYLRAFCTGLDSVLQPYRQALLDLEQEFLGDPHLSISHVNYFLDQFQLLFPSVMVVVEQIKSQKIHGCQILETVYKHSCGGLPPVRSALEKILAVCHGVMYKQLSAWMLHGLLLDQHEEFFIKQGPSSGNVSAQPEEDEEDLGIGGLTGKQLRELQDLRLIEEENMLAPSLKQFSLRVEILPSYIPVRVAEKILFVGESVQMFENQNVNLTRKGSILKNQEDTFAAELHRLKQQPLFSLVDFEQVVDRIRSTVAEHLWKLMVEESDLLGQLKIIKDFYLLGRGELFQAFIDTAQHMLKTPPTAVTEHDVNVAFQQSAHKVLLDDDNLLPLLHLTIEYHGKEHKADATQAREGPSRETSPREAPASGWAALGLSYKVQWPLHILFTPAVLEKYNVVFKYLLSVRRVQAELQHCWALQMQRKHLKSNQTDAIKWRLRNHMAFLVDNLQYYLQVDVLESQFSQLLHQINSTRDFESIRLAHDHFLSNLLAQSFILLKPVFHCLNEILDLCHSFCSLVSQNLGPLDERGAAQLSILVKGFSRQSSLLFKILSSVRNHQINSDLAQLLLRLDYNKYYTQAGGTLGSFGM
UniProt Q9BSJ2: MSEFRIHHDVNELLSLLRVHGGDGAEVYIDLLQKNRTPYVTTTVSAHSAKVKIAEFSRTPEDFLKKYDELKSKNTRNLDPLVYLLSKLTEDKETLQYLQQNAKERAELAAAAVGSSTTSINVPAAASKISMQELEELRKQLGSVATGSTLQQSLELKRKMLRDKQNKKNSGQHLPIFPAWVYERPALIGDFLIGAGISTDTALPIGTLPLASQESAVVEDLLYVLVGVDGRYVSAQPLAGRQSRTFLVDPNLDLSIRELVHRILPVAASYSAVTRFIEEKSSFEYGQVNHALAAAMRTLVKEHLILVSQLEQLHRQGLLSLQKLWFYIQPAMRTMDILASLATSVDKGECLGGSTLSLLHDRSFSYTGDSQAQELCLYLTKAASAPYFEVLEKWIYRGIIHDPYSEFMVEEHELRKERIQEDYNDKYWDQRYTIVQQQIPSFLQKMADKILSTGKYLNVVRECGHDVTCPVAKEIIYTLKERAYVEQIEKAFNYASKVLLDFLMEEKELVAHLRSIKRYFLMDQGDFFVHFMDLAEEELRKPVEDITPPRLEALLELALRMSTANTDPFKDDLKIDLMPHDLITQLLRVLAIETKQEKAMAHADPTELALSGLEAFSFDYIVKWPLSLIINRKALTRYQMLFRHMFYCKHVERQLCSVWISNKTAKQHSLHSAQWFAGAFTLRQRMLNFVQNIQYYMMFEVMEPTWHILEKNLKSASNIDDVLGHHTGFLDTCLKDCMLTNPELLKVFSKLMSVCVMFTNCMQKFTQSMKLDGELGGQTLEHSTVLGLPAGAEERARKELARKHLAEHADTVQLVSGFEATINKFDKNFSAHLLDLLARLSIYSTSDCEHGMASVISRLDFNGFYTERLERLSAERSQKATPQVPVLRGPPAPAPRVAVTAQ

[2] = biological target: T2, C-terminally mNeonGreen-tagged human GIT2, transcript variant 1 (GIT2-NG) (human) (UniProt Q14161); assay: co-IP; whole-cell extracts of cells expressing GIT1-NG, GIT2-NG or NG alone; precipitation with anti-NG Ab or, reciprocally, anti-γ-tubulin Ab on protein A beads; immunoblot
T2 sequence: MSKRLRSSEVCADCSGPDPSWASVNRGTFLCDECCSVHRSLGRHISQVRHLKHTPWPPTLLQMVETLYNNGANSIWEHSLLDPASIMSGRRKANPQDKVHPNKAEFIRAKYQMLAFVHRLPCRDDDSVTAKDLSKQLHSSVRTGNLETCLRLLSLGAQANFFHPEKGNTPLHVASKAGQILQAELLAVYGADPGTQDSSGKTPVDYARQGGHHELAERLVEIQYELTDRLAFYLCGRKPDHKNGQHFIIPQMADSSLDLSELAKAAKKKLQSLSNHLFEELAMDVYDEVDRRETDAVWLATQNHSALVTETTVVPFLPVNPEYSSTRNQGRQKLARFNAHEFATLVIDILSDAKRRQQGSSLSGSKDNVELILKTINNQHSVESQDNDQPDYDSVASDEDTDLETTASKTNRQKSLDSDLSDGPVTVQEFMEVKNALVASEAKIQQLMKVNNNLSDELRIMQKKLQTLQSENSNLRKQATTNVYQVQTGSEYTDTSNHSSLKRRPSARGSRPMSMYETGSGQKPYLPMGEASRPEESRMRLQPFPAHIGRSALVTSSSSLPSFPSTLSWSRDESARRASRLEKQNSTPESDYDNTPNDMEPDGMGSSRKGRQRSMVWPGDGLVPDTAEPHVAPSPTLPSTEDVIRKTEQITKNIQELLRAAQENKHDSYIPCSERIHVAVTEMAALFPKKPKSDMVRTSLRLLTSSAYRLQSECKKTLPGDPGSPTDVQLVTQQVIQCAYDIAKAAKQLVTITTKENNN

[3] = biological target: T3, C-terminally mNeonGreen-tagged human GIT1, transcript variant 1 (GIT1-NG) (human) (UniProt Q9Y2X7); assay: as above
T3 sequence: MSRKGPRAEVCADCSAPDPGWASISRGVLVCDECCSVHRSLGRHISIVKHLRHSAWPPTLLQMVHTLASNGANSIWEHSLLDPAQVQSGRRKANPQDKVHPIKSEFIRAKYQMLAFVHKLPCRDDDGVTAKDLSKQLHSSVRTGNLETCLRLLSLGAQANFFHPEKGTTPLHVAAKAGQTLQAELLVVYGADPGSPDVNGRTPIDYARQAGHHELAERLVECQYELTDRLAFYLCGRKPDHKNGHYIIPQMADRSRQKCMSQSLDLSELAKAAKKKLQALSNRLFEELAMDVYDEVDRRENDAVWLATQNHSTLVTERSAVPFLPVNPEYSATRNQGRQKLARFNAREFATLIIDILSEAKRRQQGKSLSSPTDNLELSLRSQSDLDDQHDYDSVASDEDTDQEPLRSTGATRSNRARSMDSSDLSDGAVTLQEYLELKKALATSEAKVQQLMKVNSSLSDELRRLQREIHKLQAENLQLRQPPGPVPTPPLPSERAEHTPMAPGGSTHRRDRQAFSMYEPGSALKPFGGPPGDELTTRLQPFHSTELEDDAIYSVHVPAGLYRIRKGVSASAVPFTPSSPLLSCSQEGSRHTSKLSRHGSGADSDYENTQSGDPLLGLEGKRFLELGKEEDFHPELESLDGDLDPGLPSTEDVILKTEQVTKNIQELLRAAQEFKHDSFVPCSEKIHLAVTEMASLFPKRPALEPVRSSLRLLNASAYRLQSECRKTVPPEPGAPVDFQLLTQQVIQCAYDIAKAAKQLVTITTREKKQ

[4] = biological target: T4, N-terminally GST-tagged full-length human GIT2 (tv1) (GST-GIT2) (human) (UniProt Q14161); assay: pull-down; GST-fusion proteins or GST alone immobilised on Glutathione-Sepharose and incubated with whole-cell extracts of U-251 MG cells; immunoblot; only the target purified
T4 sequence: T2 sequence

[5] = biological target: T5, N-terminally GST-tagged full-length human GIT1 (GST-GIT1) (human) (UniProt Q9Y2X7); assay: as above
T5 sequence: T3 sequence

[6] = biological target: T6, G protein-coupled receptor kinase-interacting protein 1 (GIT1), endogenous (human (endogenous in U-251 MG)) (UniProt Q9Y2X7); assay: co-IP; whole-cell extracts of U-251 MG cells (HEPES buffer with 1% NP-40, protease and phosphatase inhibitors) incubated with protein A beads preloaded with rabbit Ab to GIT1, GIT2 or PKCα or mAb TU-31 to γ-tubulin; immunoblot; endogenous proteins
T6 sequence: T3 sequence

[7] = biological target: T7, G protein-coupled receptor kinase-interacting protein 2 (GIT2), endogenous (human (endogenous in U-251 MG)) (UniProt Q14161); assay: as above
T7 sequence: T2 sequence

[8] = biological target: protein kinase C alpha (PKCα), endogenous (human (endogenous in U-251 MG)) (UniProt P17252); assay: as above

Molecule: γ-tubulin complex protein 4 (GCP4), endogenous (from UniProt Q9UGJ1 1-667)
binding [2]: binds | binding [3]: binds | binding [4]: binds | binding [5]: binds | binding [6]: binds | binding [7]: binds

B1: G protein-coupled receptor kinase-interacting protein 2 (GIT2), endogenous (protein, UniProt Q14161 1-759)
chain: T2 sequence
binding [8]: binds

The next lines start with the values.

binding [1]: binds
Molecule: protein kinase C alpha (PKCα), endogenous (from UniProt P17252 1-672) (enzyme)

binding [2]: binds | binding [3]: binds | binding [4]: binds | binding [5]: binds | binding [6]: binds | binding [7]: binds
Molecule: γ-tubulin complex protein 2 (GCP2), endogenous (from UniProt Q9BSJ2 1-902)
